Laboratory results reported in article PMC7532178, “Interaction of protocadherin-15 with the scaffold protein whirlin supports its anchoring of hair-bundle lateral links in cochlear hair cells” (Scientific Reports, 2020).
These are yes or no findings as the source states them, for the method shown. Some entries that bind do so weakly or less than the wild type.

T1: CDH23 C-terminal peptide (biotin-TTDS-…) (mouse)
T1 sequence (peptide, biotin-TTDS (trioxatridecan-succinamic acid spacer) on the N-terminus): VIMESPLEITEL

T2: PCDH15-CD1 C-terminal peptide (biotin-TTDS-…) (mouse)
T2 sequence (peptide, biotin-TTDS (trioxatridecan-succinamic acid spacer) on the N-terminus): GIDVQPHSQSTSL

T3: PCDH15-CD2 C-terminal peptide (biotin-TTDS-…) (mouse)
T3 sequence (peptide, biotin-TTDS (trioxatridecan-succinamic acid spacer) on the N-terminus): GANSEQYNTAL

T4: PCDH15-CD3 C-terminal peptide (biotin-TTDS-…) (mouse)
T4 sequence (peptide, biotin-TTDS (trioxatridecan-succinamic acid spacer) on the N-terminus): MGPWNSLHIPMTKL

T5: C-terminal residues of SANS (…)
T5 sequence (peptide): ALERPLALEDTEL


Key:
[1] = molecular target: T1, CDH23 C-terminal peptide (biotin-TTDS-…) (mouse); assay: SPR; ProteOn XPR 36; N-terminally biotinylated peptides captured on a Neutravidin NLC sensor chip, whirlin fragments flowed as analytes at 20 μL/min for 2 min; 250 mM NaCl, 50 mM Tris pH 7.5, 0.5 mM TCEP; steady-state fit Req = (Rmax*C)/(Kd+C); mean of three experiments; Figure 4B shows the responses at 10 μM; both purified
[2] = molecular target: T2, PCDH15-CD1 C-terminal peptide (biotin-TTDS-…) (mouse); assay: as above
[3] = molecular target: T3, PCDH15-CD2 C-terminal peptide (biotin-TTDS-…) (mouse); assay: as above
[4] = molecular target: T4, PCDH15-CD3 C-terminal peptide (biotin-TTDS-…) (mouse); assay: as above
[5] = molecular target: T5, C-terminal residues of SANS (…); assay: SPR; harmonin fragments or full-length harmonin-a1 with C-terminal peptides; Fig. S10 and data not shown; both purified

binding [1] | binding [2] | binding [3] | binding [4] | binding [5] | Binder
no binding (tested: > 1 mM) | no binding (tested: > 1 mM) | no binding (tested: > 1 mM) | no binding (tested: > 1 mM) | – | whirlin-NTR (aa residues 2-147) (domain or fragment, UniProt Q80VW5-1 2-147) GAMGSTSNAQLDGLSVSSSSTGSLGSAAAAAGGGGGAGLRLLSANVRQLHQALTALLSEPEREQFTHCLNAYHARRNVFDLVRTLRVLLDSPVKRRLLPMLRLVIPRSDQLLFDQYTAEGLYLPATTPYRQPAWAAPDGAGPGEVRLVSLRRA
no binding (tested: > 1 mM) | no binding (tested: > 1 mM) | no binding (tested: > 1 mM) | no binding (tested: > 1 mM) | – | whirlin-HHD1 (aa residues 30-121) (domain or fragment, UniProt Q80VW5-1 30-121) GAMGSTSGAGLRLLSANVRQLHQALTALLSEPEREQFTHCLNAYHARRNVFDLVRTLRVLLDSPVKRRLLPMLRLVIPRSDQLLFDQYTAEGLYLPATT
no binding (tested: 10 μM) | no binding (tested: 10 μM) | no binding (tested: 10 μM) | no binding (tested: 10 μM) | – | whirlin NTR-PDZ1 H202Y mutant (domain or fragment, UniProt Q80VW5-1 2-265) GAMGSTSNAQLDGLSVSSSSTGSLGSAAAAAGGGGGAGLRLLSANVRQLHQALTALLSEPEREQFTHCLNAYHARRNVFDLVRTLRVLLDSPVKRRLLPMLRLVIPRSDQLLFDQYTAEGLYLPATTPYRQPAWAAPDGAGPGEVRLVSLRRAKAHEGLGFSIRGGSEHGVGIYVSLVEPGSLAEKEGLRVGDQILRVNDKSLARVTYAEAVKALKGSKKLVLSVYSAGRIPGGYVTNHIYTWVDPQGRSTSPPSSLPQPHGSTLRQREDD
– | – | – | – | binds | harmonin-NTD-PDZ1 (aa 1-192) (domain or fragment, UniProt Q9ES64 1-192) GAMGSTSMDRKVAREFRHKVDFLIENDAEKDYLYDVLRMYHQTMDVAVLVGDLKLVINEPNRLPLFDAIRPLIPLKHQVEYDQLTPRRSRKLKEVRLDRLHPEGLGLSVRGGLEFGCGLFISHLIKGGQADSVGLQVGDEIVRINGYSISSCTHEEVINLIRTKKTVSIKVRHIGLIPVKSSPEESLKWQYVDQFVSES
no binding (tested: > 1 mM) | – | – | – | – | whirlin-PDZ2 (aa residues 272-368) (domain or fragment, UniProt Q80VW5-1 272-368) GAMGSTSLLQSGDEKKVNLVLGDGRSLGLTIRGGAEYGLGIYITGVDPGSEAESSGLKVGDQILEVNGRSFLNILHDEAVKLLKSSRHLILTVKDVGRLPHART
